This is one part of the list. Rule as the data show it: active = 2 or more and inactive = the rest. Single values are uncertain here, since repeats match poorly.

These results are taken from the supplement of paper PMC4683952.

The subject of the assay is Lgr5 (MarsCy1-Lgr5-EGFP, U2OS). The experiment in a line: cell-surface Lgr5 expression (SCi1 fluorescence, background-subtracted) relative to WT DMSO (fold of DMSO control); higher = more Lgr5 at the plasma membrane. Conditions: U2OS MarsCy1-Lgr5-EGFP stable; treatment time: overnight; library: ActiProbe-5K (TimTec); 25 µM.
As to `N#CCN(CC#N)S(=O)(=O)c1cc(Cl)ccc1Cl`, the “cell-surface Lgr5 expression” value was inactive: 1.29. Regarding `Sc1nnc(C2CCCCC2)n1/N=C\c1cccs1`, the “cell-surface Lgr5 expression” value was inactive: 1.14. Regarding `Brc1ccc2[nH]c3c(c2c1)CCCCC3`, the “cell-surface Lgr5 expression” value was inactive: 0.989.

Turning to `COc1ccc(NS(=O)(=O)N(C)C)cn1`, the “cell-surface Lgr5 expression” value is inactive: 1.14. In the case of `CCn1cc(Cl)c(/C=C\C(=O)c2cnn(C)c2)n1` it was inactive: 0.276; in that of `O=[N+]([O-])c1ccc2c(c1)n1cnnc1c1nncn21`, inactive: 0.885; in that of `COC(=O)c1c(N)sc2c1CCC2`, inactive: 0.925. As to `O=C(O)C1C2C=CC(C2)C1C(=O)OCC1CCCO1` (stereo unspecified), the “cell-surface Lgr5 expression” value was inactive: 1.03.

With `O=c1sc2ccccc2c(Nc2ccc([N+](=O)[O-])cc2)c1[N+](=O)[O-]`, the “cell-surface Lgr5 expression” value was inactive: 1.17. As for `Cc1cc(C)n(-c2nnc(-n3nc(C)cc3C)nn2)n1`, the “cell-surface Lgr5 expression” value was inactive: 1.2. For the compound `c1ccc(-c2ccc3ccccc3n2)nc1`, the “cell-surface Lgr5 expression” value is inactive: 0.983. With `N#CC1=C(N)Oc2[nH]nc(-c3cccs3)c2C1c1cccs1` (stereo unspecified), the “cell-surface Lgr5 expression” value is inactive: 0.757. For `Cc1cc(C)c(S(=O)(=O)NCC2CCCO2)c(C)c1` (stereo unspecified), the “cell-surface Lgr5 expression” value was inactive: 0.844. With `CC(C)N(c1snnc1N)C(C)C`, the “cell-surface Lgr5 expression” value is inactive: 0.861. Turning to `Cc1cc(C)n(-c2nnc(N)nn2)n1`, the “cell-surface Lgr5 expression” value is inactive: 1.4. `O=c1oc2cc(OCCO)ccc2c2c1CCC2`: the “cell-surface Lgr5 expression” value is inactive: 1.41. In the case of `Cc1cc(C(F)F)nc(S[C@H]2C/C(=N/O)[C@@H]3OC[C@H]2O3)n1` it was inactive: 1.16; in that of `COc1cc2c(cc1OC)NC(=O)C2`, inactive: 1.35; in that of `CCC(C)C(=O)Nc1nnc(CC(C)(C)C)s1` (stereo unspecified), inactive: 1.33. In the case of `Cc1cc(C)n(N)c(=O)c1C(N)=O` it was inactive: 1.09. As for `C1CCCN(CC2CCCCN2)CC1` (stereo unspecified), the figure is inactive: 1.31. As to `C=CCNc1nc2nc(N)nc(N)c2s1`, the “cell-surface Lgr5 expression” value is inactive: 1.16.

As for `Cc1ccc2c(c1)-c1c(ssc1=S)C(C)(C)N2C`, the “cell-surface Lgr5 expression” value is inactive: 1.38. In the case of `c1ccc(Cn2c(-c3ccccc3)cs/c2=N\c2ccccc2)cc1` it was inactive: 0.814. In the case of `Fc1ccc(Cn2nnc(-c3cccnc3)n2)cc1`, the “cell-surface Lgr5 expression” value was inactive: 1.36. `Cc1nc(NC(=N)N)nc2ccccc12`: the “cell-surface Lgr5 expression” value was active: 2.38. Regarding `N#CC1=C(N)OC2=C(CCC/C2=C/c2cccs2)C1c1cccs1` (stereo unspecified), the “cell-surface Lgr5 expression” value is inactive: 0.625. Regarding `NC(=[NH2+])SCc1ccc(Cl)cc1Cl.[Cl-]`, the “cell-surface Lgr5 expression” value was inactive: 1.14. Turning to `CS(=O)(=O)Nc1ccc2c3c(cccc13)CC2`, the “cell-surface Lgr5 expression” value was inactive: 1.31. For `Cc1nn2cc(-n3cc([N+](=O)[O-])cn3)cnc2c1[N+](=O)[O-]`, the “cell-surface Lgr5 expression” value was inactive: 1.15.

For the compound `Cc1ccc(CN2CCNCC2CCO)o1` (stereo unspecified), the “cell-surface Lgr5 expression” value is inactive: 1.21.

On to `Cc1cc(=O)oc(C)c1C(=O)O`, for which the “cell-surface Lgr5 expression” value is inactive: 1.27. For the compound `CNc1nc(N)c(C(=O)C(C)(C)C)s1`, the “cell-surface Lgr5 expression” value was inactive: 1.24. Take `O=C(O)COCC12CC3CC(CC(C3)C1)C2`: the “cell-surface Lgr5 expression” value is inactive: 1.26. As for `O=S(=O)(c1ccc(Oc2ccc(Br)cc2)cc1)N1CCOCC1`, the “cell-surface Lgr5 expression” value was inactive: 0.989. Take `CCc1sc(/C=C(/C#N)C(N)=S)cc1Br`: the “cell-surface Lgr5 expression” value is inactive: 1.01. For `CCCCn1c(C23CC4CC(CC(C4)C2)C3)cn2c3c(=O)n(C)c(=O)n(C)c3nc12`, the “cell-surface Lgr5 expression” value is inactive: 1. In the case of `NC(=O)c1c(NC(=O)C2CCCCC2)sc2c1CCCC2`, the “cell-surface Lgr5 expression” value was inactive: 1.1. With `CC(=O)c1c(C)[nH]c(C(=O)OC(C)(C)C)c1C`, the “cell-surface Lgr5 expression” value is inactive: 0.972. As to `O=C(O)CCc1cn(CCC(=O)O)cn1`, the “cell-surface Lgr5 expression” value is inactive: 1.24. For `Nc1ccc2nn(-c3ccc(Br)cc3)nc2c1`, the “cell-surface Lgr5 expression” value is inactive: 0.971.

Regarding `C(=N\c1ccccn1)/c1cccc2ccccc12`, the “cell-surface Lgr5 expression” value is inactive: 1.31. For `O=C(Nc1nccs1)C(=S)N1CCOCC1`, the “cell-surface Lgr5 expression” value was inactive: 1.22. As for `Nc1c(-c2ccccc2)no[n+]1[O-]`, the figure is inactive: 1.36. Turning to `CN1C(=O)Cc2cc(Br)ccc21`, the “cell-surface Lgr5 expression” value was inactive: 1.19. Consider `O=c1[nH]cccc1NS(=O)(=O)c1ccc(F)cc1`, for which the “cell-surface Lgr5 expression” value was inactive: 1.03. Consider `CC(C)[Si]1(C(C)C)OCC2O[C@@H](n3ccc(N)nc3=O)C(O)C2O[Si](C(C)C)(C(C)C)O1` (stereo partly specified), for which the “cell-surface Lgr5 expression” value is inactive: 1.46. On to `Cc1cc(C)n(Cn2nc(N)cc2C)n1`, for which the “cell-surface Lgr5 expression” value is inactive: 1.16. Consider `Brc1ccc(-n2cnnn2)c2ncccc12`, for which the “cell-surface Lgr5 expression” value was inactive: 1.21.

Regarding `CCC(CCC(C)O)CC1CCCO1` (stereo unspecified), the “cell-surface Lgr5 expression” value is inactive: 1.4. As for `O=C(Nc1nc2c(s1)CCCC2)C1CC(=O)N(C2CCCCC2)C1` (stereo unspecified), the figure is inactive: 1.2; as for `CCc1ccc(/C=N/n2c(S)nnc2-c2ccc(C(C)(C)C)cc2)cc1`, inactive: 0.817. For `O=C(CCCCCCCC(=O)N/N=C/c1ccc([N+](=O)[O-])o1)N/N=C\c1ccc([N+](=O)[O-])o1`, the “cell-surface Lgr5 expression” value is inactive: 1.36.

Take `COc1c(C)c(C)c(OC)c(S(=O)(=O)N2CCCCC2)c1C`: the “cell-surface Lgr5 expression” value was inactive: 0.98. As for `CSc1sc(SC)c(CO)c1CO`, the figure is inactive: 0.929; as for `CC1CC2=C(OC(N)=C(C#N)C2c2cccs2)/C(=C/c2cccs2)C1` (stereo unspecified), inactive: 1.21.
